Measurements: US20150232557A1 (APTEVO RESEARCH AND DEVELOPMENT, published 2015)
Positions count from the first letter of the chain named. Names may count otherwise. No constants are given. Whether binding was seen depends on the method and setting. Some entries that bind do so weakly or less than the wild type. Where a sequence is shown, tags or fusion partners need not be part of it.

Sequences of proteins named here, by UniProt entry; tags and fusion partners are left off. Residues count along the entry.
UniProt P07766, residues 23-207: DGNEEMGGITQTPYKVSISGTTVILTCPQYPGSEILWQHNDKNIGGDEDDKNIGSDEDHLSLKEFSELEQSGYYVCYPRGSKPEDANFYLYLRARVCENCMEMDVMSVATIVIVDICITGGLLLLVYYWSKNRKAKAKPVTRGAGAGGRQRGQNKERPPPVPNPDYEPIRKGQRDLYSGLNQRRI

B1: DRA219 (H3 L1 IgG4 AA ADCC-CDC null Fc, SSS prehinge) (Fc fusion)
chain: QVQLVQSGGGVVQPGRSLRLSCKASGYTFTRSTMHWVRQAPGKGLEWIGYINPSSAYTNYNQKFKDRFTISADKSKSTAFLQMDSLRPEDTGVYFCARPQVHYDYNGFPYWGQGTPVTVSSGGGGSGGGGSGGGGSAQDIQMTQSPSSLSASVGDRVTMTCSASSSVSYMNWYQQKPGKAPKRWIYDSSKLASGVPARFSGSGSGTDYTLTISSLQPEDFATYYCQQWSRNPPTFGGGTKLQITSSSEPKSSDKTHTCPPCPAPEAAAPSVFLFPPKPKDTLMISRTPEVTCVVVDVSQEDPEVQFNWYVDGVEVHNAKTKPREEQFNSTYRVVSVLTVLHQDWLNGKAYACAVSNKGLPSSIEKTISKAKGQPREPQVYTLPPSQEEMTKNQVSLTCLVKGFYPSDIAVEWESNGQPENNYKTTPPVLDSDGSFFLYSRLTVDKSRWQEGNVFSCSVMHEALHNHYTQKSLSLSPGK
B2: DRA222 (H4 L1 with IgG4 AA ADCC-CDC null Fc) (Fc fusion)
chain: B1 chain with Q6E, K43Q
B3: DRA233 (H3L1, IgG4 AA N297A Fc) (Fc fusion)
chain: B1 chain with N328A, A349E, A351K, A353K
B4: DRA234 (H4L1, IgG4 AA N297A Fc) (Fc fusion)
chain: B1 chain with Q6E, K43Q, N328A, A349E, A351K, A353K
B5: DRA228 (Fc fusion)
chain: B1 chain
B6: DRA229 (Fc fusion)
chain: B1 chain with Q6E, K43Q
B7: DRA209 SMIP (H3L1, IgG4 AA ADCC-CDC null Fc) (Fc fusion)
chain: B1 chain with S245R, S246R, S247T
B8: DRA161 SMIP (H3L1, IgG4 AA N297A Fc) (Fc fusion)
chain: B1 chain with S245R, S246R, S247T, E248S, N328A, A349E, A351K, A353K
B9: DRA221 (H4L3 with IgG4 AA ADCC-CDC null Fc) (Fc fusion)
chain: B1 chain with Q6E, K43Q, R183L, W184L, L241V, Q242E, T244K
B10: DRA223 (H3L3 with IgG4 AA ADCC-CDC null Fc) (Fc fusion)
chain: B1 chain with R183L, W184L, L241V, Q242E, T244K
B11: DRA224 (H5L4 with IgG4 AA ADCC-CDC null Fc) (Fc fusion)
chain: QVQLVQSGAEVKKPGASVKVSCKASGYTFTRSTMHWVRQAPGQRLEWMGYINPSSAYTNYNQKFKDRVTITRDTSASTAYMELSSLRSEDTAVYYCARPQVHYDYNGFPYWGQGTLVTVSSGGGGSGGGGSGGGGSGGGGSEIVLTQSPATLSLSPGERATLSCSASSSVSYMNWYQQKPGQAPRLLIYDSSKLASGIPARFSGSGSGTDFTLTISSLEPEDFAVYYCQQWSRNPPTFGGGTKVEIKSSSEPKSSDKTHTCPPCPAPEAAAPSVFLFPPKPKDTLMISRTPEVTCVVVDVSQEDPEVQFNWYVDGVEVHNAKTKPREEQFNSTYRVVSVLTVLHQDWLNGKAYACAVSNKGLPSSIEKTISKAKGQPREPQVYTLPPSQEEMTKNQVSLTCLVKGFYPSDIAVEWESNGQPENNYKTTPPVLDSDGSFFLYSRLTVDKSRWQEGNVFSCSVMHEALHNHYTQKSLSLSPGK

target: T1, CD3 (human, UniProt P07766 23-207); test: in vitro binding studies; format not described

binding, binds:
B1, B2

target: T1, CD3; test: flow cytometry on human PBMC gated on CD5+ T-cells

binding, binds:
B3, B4, B5, B6, B7, B8

target: T1, CD3; test: in vitro binding studies, HEK-produced protein; format not described

binding, binds:
B1, B9, B2, B10, B11
